Results are given in words; binding and its absence hold for the method and conditions named. Some binding calls cover weakened binding; strength is not graded here.
Experiments:
[1] = target: Met-Fc fusion protein (R&D Systems) labeled with Alexa 488 (UniProt P08581); assay: flow cytometry, yeast surface display, Met-Fc Alexa-488
[2] = target: Met-Fc fusion protein (R&D Systems) labeled with Alexa 488 (UniProt P08581); assay: flow cytometry, yeast surface display, Met-Fc Alexa-488 at 20, 0.2 and 0.04 nM

The chains behind the UniProt entries cited, without tags or fusion partners. Where a name states a change or a piece, a line headed by the entry shows the natural chain unless it says otherwise. Residues count along the entry.
UniProt P08581, residues 25-932: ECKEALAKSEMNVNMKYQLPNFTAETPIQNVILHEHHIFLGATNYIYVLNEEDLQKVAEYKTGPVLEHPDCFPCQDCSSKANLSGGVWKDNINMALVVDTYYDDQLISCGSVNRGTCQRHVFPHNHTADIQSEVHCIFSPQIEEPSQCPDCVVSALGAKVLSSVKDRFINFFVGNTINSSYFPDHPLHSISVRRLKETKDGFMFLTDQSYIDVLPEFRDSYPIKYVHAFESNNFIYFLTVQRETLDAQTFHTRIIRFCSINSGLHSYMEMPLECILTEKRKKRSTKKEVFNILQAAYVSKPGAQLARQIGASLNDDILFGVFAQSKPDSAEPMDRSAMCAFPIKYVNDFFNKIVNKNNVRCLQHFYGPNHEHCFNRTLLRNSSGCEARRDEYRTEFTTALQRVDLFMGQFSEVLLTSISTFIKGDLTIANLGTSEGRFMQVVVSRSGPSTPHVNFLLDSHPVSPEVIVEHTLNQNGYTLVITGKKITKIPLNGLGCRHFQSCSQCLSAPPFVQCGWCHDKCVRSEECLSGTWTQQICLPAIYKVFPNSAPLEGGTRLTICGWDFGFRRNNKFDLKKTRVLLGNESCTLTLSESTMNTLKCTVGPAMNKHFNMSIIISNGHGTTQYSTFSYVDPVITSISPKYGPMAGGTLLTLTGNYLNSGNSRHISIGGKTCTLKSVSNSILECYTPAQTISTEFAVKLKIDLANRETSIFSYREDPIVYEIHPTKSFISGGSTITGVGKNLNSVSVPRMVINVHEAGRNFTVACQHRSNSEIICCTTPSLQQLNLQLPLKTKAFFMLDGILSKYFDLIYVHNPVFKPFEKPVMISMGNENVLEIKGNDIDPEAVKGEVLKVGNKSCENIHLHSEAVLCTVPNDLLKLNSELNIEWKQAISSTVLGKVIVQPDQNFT
UniProt P14210: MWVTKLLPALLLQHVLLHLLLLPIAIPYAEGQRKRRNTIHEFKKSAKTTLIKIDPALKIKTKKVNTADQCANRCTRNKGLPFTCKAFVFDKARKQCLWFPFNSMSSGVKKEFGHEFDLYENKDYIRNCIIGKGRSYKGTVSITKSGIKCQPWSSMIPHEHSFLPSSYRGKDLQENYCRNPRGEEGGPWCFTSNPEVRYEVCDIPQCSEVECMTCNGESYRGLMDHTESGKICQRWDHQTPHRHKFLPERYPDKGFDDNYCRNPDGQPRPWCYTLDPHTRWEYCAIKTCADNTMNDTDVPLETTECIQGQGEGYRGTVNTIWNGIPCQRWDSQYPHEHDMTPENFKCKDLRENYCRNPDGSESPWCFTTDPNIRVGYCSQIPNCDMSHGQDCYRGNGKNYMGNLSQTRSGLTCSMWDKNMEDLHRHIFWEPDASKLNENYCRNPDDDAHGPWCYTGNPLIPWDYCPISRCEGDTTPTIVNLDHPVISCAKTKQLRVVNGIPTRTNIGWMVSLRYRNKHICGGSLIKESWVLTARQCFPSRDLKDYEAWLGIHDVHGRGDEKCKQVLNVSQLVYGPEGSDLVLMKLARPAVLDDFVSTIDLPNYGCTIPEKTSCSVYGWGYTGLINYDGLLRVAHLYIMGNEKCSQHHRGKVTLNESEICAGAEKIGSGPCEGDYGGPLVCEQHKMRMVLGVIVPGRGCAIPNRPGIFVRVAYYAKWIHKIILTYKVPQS

| binding [1] | binding [2] | Substance |
| --- | --- | --- |
| binds |  | Aras-4 M3S7.2.11 (yeast-displayed clone of the third round of directed evolution) (from UniProt P14210 28-210) (ligand) |
|  | binds | yeast-displayed NK1 mutant M2.1 (from UniProt P14210 28-210) (ligand) |
|  | binds | yeast-displayed NK1 mutant M2.2 (from UniProt P14210 28-210) (ligand) |
